Results taken from the supplement of paper PMC12823440, “Inhibitors supercharge kinase turnover through native proteolytic circuits” (Nature, 2025).
Structures can show the parent of a compound that is named as a salt. The list shows a part of the results. The calls rarely recur for the same compound in another form.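 In K562 cells expressing nanoluciferase-fused kinases, luminescence was recorded at 4 h intervals between 2 and 18 h, normalized as percent of control with DMSO at 100% and a positive control at 0%. A significant (2 sigma) signal drop marks a time point as decreased. The authors' rule for a hit is not shown and takes in more than the number of time points.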

The chains behind the UniProt entries cited, without tags or fusion partners. Where a name states a change or a piece, a line headed by the entry shows the natural chain unless it says otherwise.
UniProt P53671: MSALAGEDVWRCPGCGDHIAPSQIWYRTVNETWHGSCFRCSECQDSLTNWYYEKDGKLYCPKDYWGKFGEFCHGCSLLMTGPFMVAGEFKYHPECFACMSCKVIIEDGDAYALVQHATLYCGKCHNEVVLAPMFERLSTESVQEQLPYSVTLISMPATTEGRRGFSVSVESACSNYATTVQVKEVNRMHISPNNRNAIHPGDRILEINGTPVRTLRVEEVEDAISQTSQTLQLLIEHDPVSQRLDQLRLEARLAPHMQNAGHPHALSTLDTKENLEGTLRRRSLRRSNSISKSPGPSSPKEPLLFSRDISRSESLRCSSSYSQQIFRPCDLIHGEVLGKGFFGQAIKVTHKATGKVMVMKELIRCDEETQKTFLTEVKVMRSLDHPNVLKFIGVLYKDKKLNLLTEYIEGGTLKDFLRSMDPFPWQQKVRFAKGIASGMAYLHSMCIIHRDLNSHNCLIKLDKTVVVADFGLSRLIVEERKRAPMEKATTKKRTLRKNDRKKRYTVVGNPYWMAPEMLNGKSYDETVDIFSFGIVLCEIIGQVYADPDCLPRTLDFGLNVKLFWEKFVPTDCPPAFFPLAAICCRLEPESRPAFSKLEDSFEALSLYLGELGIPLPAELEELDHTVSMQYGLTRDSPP

biological target: LIMK2 (UniProt P53671); assay: number of time points (of 5) at which kinase-Nluc abundance scored as decreased, DMSO-normalised (count); higher = more persistent destabilization; conditions: K562; 2-18 h

| SMILES | number of time points |
| --- | --- |
| C=C(CCC=C(C)C)[C@H]1CC[C@]2(C)[C@@H]1[C@H](O)C[C@@H]1[C@@]3(C)CC[C@H](O[C@@H]4O[C@H](CO)[C@@H](O)[C@H](O)[C@H]4O[C@@H]4O[C@H](CO)[C@@H](O)[C@H](O)[C@H]4O)C(C)(C)[C@@H]3CC[C@]12C [Ginsenoside Rk1] (10 µM) | 0 |
| CCn1c(=O)c(-c2ccc(-c3cncs3)cc2Cl)cc2cnc(Nc3ccc(N4CCN(C)CC4)cc3)nc21 (2.5 µM) | 0 |
| Nc1nccc(Oc2ccc(NC(=O)c3cn(COP(=O)(O)O)cc(-c4ccc(F)cc4)c3=O)cc2F)c1Cl (10 µM) | 0 |
| Cc1cc(-c2cc(OC(=O)c3ccccc3)ccc2Cl)cc2nnc(Nc3ccc(OCCN4CCCC4)cc3)nc12 (0.5 µM) | 0 |
| OC[C@H]1O[C@@H](Oc2cc3c(O)cc(O)cc3[o+]c2-c2cc(O)c(O)c(O)c2)[C@H](O)[C@@H](O)[C@@H]1O [Delphinidin 3-glucoside (chloride)] (10 µM) | 0 |
| O=C(/C=C/c1ccc(O)c(O)c1)c1ccc(O[C@@H]2O[C@H](CO)[C@@H](O)[C@H](O)[C@H]2O)c(O)c1O [Marein] (10 µM) | 0 |
| O=C1Nc2nc(-c3c(O)cccc3OCC3CC3)cc([C@@H]3CCCNC3)c2CO1 [Bay 65-1942 (hydrochloride)] (10 µM) | 0 |
| CC(C)CN(CC(=O)N1CCN(CC(OCc2ccc3ccccc3c2)c2ccc(Cl)cc2Cl)CC1)CC(C)C (centres undefined) [LYN-1604 (dihydrochloride)] (2.5 µM) | 0 |
| CCc1cc(O)c(F)cc1-c1ccc2c(-c3nc4c([nH]3)CN(C3CCN(C)CC3)CC4)n[nH]c2c1 [JAK-IN-5 (hydrochloride)] (2 µM) | 0 |
| Cc1ccc(Nc2cc(-c3cccc(N4C(=O)c5ccccc5C4=O)c3)ncn2)cc1NS(C)(=O)=O (10 µM) | 0 |
| C=C1C(=O)O[C@@H]2C[C@@]3(C)CCC[C@H](C)C3=C[C@H]12 [Alantolactone] (10 µM) | 0 |
| C=C(C)C(=O)Nc1cccc(-c2ncnc3[nH]cc(C(=O)OCC)c23)c1 (10 µM) | 0 |
| CNc1nc(Nc2cnn(C3CCN(C4COC4)CC3F)c2Cl)ncc1C(F)(F)F (centres undefined) (10 µM) | 0 |
| Cc1cc(Nc2cc(Cl)nc(Oc3ccc([N+](=O)[O-])cc3)n2)n[nH]1 [Autophinib] (2.5 µM) | 0 |
| CC(C)=CC[C@H](O)C1=CC(=O)c2c(O)ccc(O)c2C1=O [(-)-Alkannin] (2.5 µM) | 0 |
| CNCc1ccccc1-c1csc([C@@H](C)Nc2nc(C)nc3cc(OC)c(OC)cc23)c1 (2.5 µM) | 1 |
| COc1ncc(-c2nc(N3CCOCC3)nc3c(CN4CCC(C(C)(C)O)CC4)cc(F)cc23)cc1NS(C)(=O)=O [Linperlisib] (10 µM) | 0 |
| O=C(Nc1ccc(F)cc1F)[C@H](NC(=S)Nc1cc(C(F)(F)F)cc(C(F)(F)F)c1)c1ccccc1 (2.5 µM) | 0 |
| O=C1NC(=O)C(=Cc2ccc(-c3ccc(F)cc3)o2)S1 (stereo in doubt) (10 µM) | 0 |
| CCOc1cc(C(=O)N2CCC(N3CCN(C)CC3)CC2)ccc1Nc1ncc2c(n1)N(C1CCCC1)c1ccccc1C(=O)N2C (10 µM) | 0 |

Two of the compounds above, bar-delimited:
SMILES | number of time points
O=C1NC(=O)C(=Cc2ccc(-c3ccc(F)cc3)o2)S1 (stereo in doubt) (10 µM) | 0
CCOc1cc(C(=O)N2CCC(N3CCN(C)CC3)CC2)ccc1Nc1ncc2c(n1)N(C1CCCC1)c1ccccc1C(=O)N2C (10 µM) | 0

Remaining list, next part:

| SMILES | number of time points |
| --- | --- |
| OC(COc1ccc(C(F)(F)F)cc1)CN(Cc1ccccc1)Cc1ccccc1 (centres undefined) (2.5 µM) | 0 |
| C[C@@H]1C(=O)O[C@H](C)[C@H]1C[C@@H](O)[C@](C)(O)[C@H]1CC[C@@]2(O)C3=CC(=O)[C@@H]4C[C@@H](O)[C@@H](O)C[C@]4(C)[C@H]3CC[C@]12C [Cyasterone] (10 µM) | 0 |
| Cc1c(CN2CCN(C(=O)[C@H](C)O)CC2)sc2c(N3CCOCC3)nc(-c3cnc(N)nc3)nc12 [Apitolisib] (10 µM) | 0 |
| CC(C)(C)NC(=O)c1cncn1C1CCN(c2ccc(-c3nnc(C(F)(F)F)o3)cn2)CC1 (10 µM) | 0 |
| NCc1ccc(Nc2ncc(F)c(Nc3ccccc3)n2)cc1 (10 µM) | 0 |
| COC1(c2sc3c(N4CCOCC4)nc(-c4cnc(N)nc4)nc3c2C)COC1 (2.5 µM) | 0 |
| COc1cc2c[n+](C)c3c4cc5c(cc4ccc3c2cc1OC)OCO5 [Nitidine (chloride)] (2 µM) | 0 |
| N#Cc1ccc2ncnc(NC3CCC(N4CCOCC4)CC3)c2c1 (centres undefined) (10 µM) | 0 |
| COc1ccc2c(c1O)OC(C)(C)c1c-2ccc2c1C(=O)N(c1ccc(C(=O)c3ccccc3)cc1)C2=O [Ampkinone] (10 µM) | 3 |
| CC1=C2C(=O)O[C@@H](c3ccoc3)[C@]2(C)CCC1 [Fraxinellone] (10 µM) | 0 |
| CS(=O)(=O)c1ccc(-c2cnc(N)c(C(=O)Nc3ccccc3)n2)cc1 (10 µM) | 0 |
| O=C(NC(NC(=S)Nc1ccc(F)c([N+](=O)[O-])c1)C(Cl)(Cl)Cl)C(c1ccccc1)c1ccccc1 (centres undefined) (10 µM) | 0 |
| COc1cc(C(N)=O)nc(-c2cccc(C#C[C@]3(O)CCN(C)C3=O)c2)c1 (10 µM) | 0 |
| O=C(Nc1cc(Oc2cc(F)c(NC(=O)C3(C(=O)Nc4ccc(F)cc4)CC3)cc2F)ccn1)C1CC1 [Altiratinib] (10 µM) | 0 |
| COc1ccc(Cl)cc1NC(=O)Nc1cc(C)nc2ccccc12 (2.5 µM) | 0 |
| COc1ccc(CC(=O)Nc2nc3c(s2)CCc2ccccc2-3)cc1OC (10 µM) | 0 |
| N[C@H](Cc1c[nH]c2ccccc12)C(=O)N/N=C/c1ccc2nccnc2c1 [Rhosin (hydrochloride)] (10 µM) | 0 |
| CC(C)(C)c1ccc(S(=O)(=O)Nc2ccc(-n3ccnc3)cc2)cc1 (10 µM) | 0 |
| Cc1ccc(-c2c(C(=O)CF)n(CCCO)c3ncnc(N)c23)cc1 (10 µM) | 0 |

Molecules shown so far with a tert-butyl group, in the order listed:

| SMILES | number of time points |
| --- | --- |
| CC(C)(C)NC(=O)c1cncn1C1CCN(c2ccc(-c3nnc(C(F)(F)F)o3)cn2)CC1 (10 µM) | 0 |
| CC(C)(C)c1ccc(S(=O)(=O)Nc2ccc(-n3ccnc3)cc2)cc1 (10 µM) | 0 |
